Some of the results follow.
Columns and labels:
Experiment in all cases: glycan array binding signal (z-score within array); higher = stronger binding
Settings in all cases: glycan notation: IUPAC condensed, linker removed
[1] = biological target: Gal(b1-4)GlcNAc(b1-3)Gal(b1-4)GlcNAc(b1-6)[Gal(b1-3)]GalNAc
How it was run: (§1)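 The binding signal is a Z-score computed within each array. Data were drawn from 3228 arrays in the Consortium for Functional Glycomics database, restricted to those with a known protein sequence. Scores were averaged over arrays of the same protein sequence at different concentrations or buffers, and over linkers, and negative values can be taken as non-binding.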

[2] = biological target: Gal(b1-4)GlcNAc(b1-3)Gal(b1-4)[Fuc(a1-3)]GlcNAc(b1-3)Gal(b1-4)[Fuc(a1-3)]GlcNAc
How it was run: as §1

[3] = biological target: Gal(b1-4)GlcNAc(b1-3)GalNAc
How it was run: as §1

[4] = biological target: Gal(b1-4)GlcNAc(b1-3)[Fuc(a1-3)GlcNAc(b1-6)]Gal(b1-4)Glc
How it was run: as §1

[5] = biological target: Gal(b1-4)GlcNAc(b1-3)[Gal(b1-4)GlcNAc(b1-6)]Gal(b1-4)GlcNAc
How it was run: as §1

[6] = biological target: Gal(b1-4)GlcNAc(b1-3)[GlcNAc(b1-6)]Gal(b1-4)GlcNAc
How it was run: as §1

[7] = biological target: Gal(b1-4)GlcNAc(b1-6)Gal(b1-4)GlcNAc
How it was run: as §1

[8] = biological target: Gal(b1-4)GlcNAc(b1-6)GalNAc
How it was run: as §1

[9] = biological target: Gal(b1-4)GlcNAc(b1-6)[Gal(b1-3)]GalNAc
How it was run: as §1

[10] = biological target: Gal(b1-4)GlcNAc(b1-6)[Gal(b1-4)GlcNAc(b1-3)]GalNAc
How it was run: as §1

[11] = biological target: Gal(b1-4)GlcNAc6P
How it was run: as §1

[12] = biological target: Gal(b1-6)Gal
How it was run: as §1

[13] = biological target: Gal3S(b1-3)GalNAc
How it was run: as §1

[14] = biological target: Gal3S(b1-3)GlcNAc
How it was run: as §1

[15] = biological target: Gal3S(b1-3)[Fuc(a1-4)]GlcNAc
How it was run: as §1

[16] = biological target: Gal3S(b1-4)Glc
How it was run: as §1

[17] = biological target: Gal3S(b1-4)Glc6S
How it was run: as §1

[18] = biological target: Gal3S(b1-4)GlcNAc
How it was run: as §1

[19] = biological target: Gal3S(b1-4)[Fuc(a1-3)]Glc6S
How it was run: as §1

[20] = biological target: Gal3S(b1-4)[Fuc(a1-3)]GlcNAc
How it was run: as §1

[21] = biological target: Gal3S(b1-4)[Fuc(a1-3)]GlcNAc6S
How it was run: as §1

[22] = biological target: Gal3S4S(b1-4)GlcNAc
How it was run: as §1

[23] = biological target: Gal3S6S(b1-4)GlcNAc
How it was run: as §1

[24] = biological target: Gal3S6S(b1-4)GlcNAc6S
How it was run: as §1

[25] = biological target: Gal4S(b1-4)GlcNAc
How it was run: as §1

[26] = biological target: Gal4S6S(b1-4)GlcNAc
How it was run: as §1

[27] = biological target: Gal6P(b1-4)GlcNAc
How it was run: as §1

[28] = biological target: Gal6S(b1-3)GlcNAc
How it was run: as §1

[29] = biological target: Gal6S(b1-3)GlcNAc6S
How it was run: as §1

[30] = biological target: Gal6S(b1-4)Glc
How it was run: as §1

[31] = biological target: Gal6S(b1-4)Glc6S
How it was run: as §1

[32] = biological target: Gal6S(b1-4)GlcNAc
How it was run: as §1

[33] = biological target: Gal6S(b1-4)GlcNAc6S
How it was run: as §1

[34] = biological target: GalNAc(a1-3)Gal
How it was run: as §1

[35] = biological target: GalNAc(a1-3)GalNAc
How it was run: as §1

[36] = biological target: GalNAc(a1-3)GalNAc(b1-3)Gal(a1-4)Gal(b1-4)Glc
How it was run: as §1

[37] = biological target: GalNAc(a1-3)GalNAc(b1-3)Gal(a1-4)Gal(b1-4)GlcNAc
How it was run: as §1

B1: PX14379D-pdi-530-26-530 (Parabacteroides distasonis) (protein)
chain: DETVYDKLPADDFGQSTAELNALIGNSHNTMKKFWTEYMHLSECSGSMAVTPTRRGGDWYDGGQYREIYMHTWTSQTSRVKSAWKAATEAIGTCNEAIRKLQNSEILTEEEKAQDVADLRGVRAFWIYVMMDYWGNIPLLTEFHPTDKVFPGNSSRQEVFDWLIQEVEEIKDICPPATTENYGSFTQGAAYSLLAKLYLNAEAWGVTFSGNAYQKVIDNCDKVMAMGYILEPNWKDNFSVTNENSKEAILAATFSSSDTGNDGNVKNELHNNTLHYKDYLSLGITASGTWNGICAQPEYVRLFDEEDARLDGTFLTGLMIDKSTGKPIMTDHNNELNHTIDVNMIPGMEYDGTNWSAVEQHDGARCFKWEFASDLTSSMGNDFHIFRLADIYLMKAEALLRGGGSVSEATALVNTIRERGYGNSDHNYATVTLKEVQLERRLELAWEVYSRQDDIRFGCFTTGMWPQSNCERKADDYLKLLPVSQDAWQVNPNLKQNPGYAAFSK
In the case of B1, the “glycan array binding signal (z-score)” value [1] is reported as 0.117, the “glycan array binding signal (z-score)” value [2] is reported as -0.033 and the “glycan array binding signal (z-score)” value [3] is reported as -0.571. The “glycan array binding signal (z-score)” value [4] was -0.886, the “glycan array binding signal (z-score)” value [5] was 0.426 and the “glycan array binding signal (z-score)” value [6] was -0.719. For the same binder, the “glycan array binding signal (z-score)” value [7] was 0.063, the “glycan array binding signal (z-score)” value [8] was 0.905 and the “glycan array binding signal (z-score)” value [9] was -0.528. For the same binder, the “glycan array binding signal (z-score)” value [10] was 0.558, the “glycan array binding signal (z-score)” value [11] was -0.733 and the “glycan array binding signal (z-score)” value [12] was -0.718. For the same binder, the “glycan array binding signal (z-score)” value [13] was 0.091, the “glycan array binding signal (z-score)” value [14] was -0.593 and the “glycan array binding signal (z-score)” value [15] was 0.157. The “glycan array binding signal (z-score)” value [16] was 2.44, the “glycan array binding signal (z-score)” value [17] was 0.872 and the “glycan array binding signal (z-score)” value [18] was 0.271. For the same binder, the “glycan array binding signal (z-score)” value [19] was -0.43, the “glycan array binding signal (z-score)” value [20] was -0.141 and the “glycan array binding signal (z-score)” value [21] was 1.22. The “glycan array binding signal (z-score)” value [22] was -0.454, the “glycan array binding signal (z-score)” value [23] was 0.117 and the “glycan array binding signal (z-score)” value [24] was 2.52. The “glycan array binding signal (z-score)” value [25] was -0.228, the “glycan array binding signal (z-score)” value [26] was -0.101 and the “glycan array binding signal (z-score)” value [27] was -0.751. For the same binder, the “glycan array binding signal (z-score)” value [28] was 0.293, the “glycan array binding signal (z-score)” value [29] was 2.34 and the “glycan array binding signal (z-score)” value [30] was -0.874. For the same binder, the “glycan array binding signal (z-score)” value [31] was 0.655, the “glycan array binding signal (z-score)” value [32] was -0.052 and the “glycan array binding signal (z-score)” value [33] was -0.546. The “glycan array binding signal (z-score)” value [34] was -0.862, the “glycan array binding signal (z-score)” value [35] was 0.547 and the “glycan array binding signal (z-score)” value [36] was -0.616. The “glycan array binding signal (z-score)” value [37] was 0.643.

— the supplement of paper PMC8728848
